Results are given in words; binding and its absence hold for the method and conditions named. Some results given as binding are weak or reduced against the parent protein; the word gives no strength.
Target: FimA, the primary building block of type 1 fimbriae of E. coli TOP10 (E. coli (endogenous in E. coli TOP10)) (UniProt P04128)
Experiment: cryo-EM structure; type 1 fimbriae extracted from E. coli TOP10; FimA identified by mass spectrometry; 2.6 Å

B1: FimA, the primary building block of type 1 fimbriae of E. coli TOP10 (protein, UniProt P04128 24-182)
chain: AATTVNGGTVHFKGEVVNAACAVDAGSVDQTVQLGQVRTASLAQEGATSSAVGFNIQLNDCDTNVASKAAVAFLGTAIDAGHTNVLALQSSAAGSATNVGVQILDRTGAALTLDGATFSSETTLNNGTNTIPFQARYFATGAATPGAANADATFKVQYQ
binding: binds

— publication PMC12212870
